# Source: article doi:10.1101/2023.03.13.532050
# Molecular target: Acar3 heavy chain (residues 1-272), construct for structural studies (great reed warbler (Acrocephalus arundinaceus))
# Experiment: crystal structure
binder,measurement,value
MTMITPPTF [peptide 3 (…)],binding,binds

# These are yes or no findings as the source states them, for the method shown. A result given as binding can be weak or reduced; the word gives no strength.
